For data set [1], the system named is squirrel monkeys. The data set is described as follows: Operant responding (FR10 food reinforcement) in squirrel monkeys.
Data set [2] has as its system squirrel monkeys. Put plainly: Squirrel monkey ventilation (whole-body plethysmograph, air or 5% CO2). Format: in vivo, Saimiri sciureus. As to conditions: ratio of ED50 values. Here is the method: Gas (either air or a 5% CO2 in air mixture) was introduced to and extracted from the chamber at a constant flow rate of 5 L/min. Experimental sessions consisted of 4–6 consecutive 30 min cycles, each comprising a 15 min exposure to air followed by a 15 min exposure to 5% CO2. Drug effects were determined using cumulative dosing procedures, and injections were administered following each exposure to 5% CO2. Respiratory rate and tidal volume (mL/breath) were recorded over 1 min periods and were multiplied to provide minute volumes. Data from the last three minutes of each exposure to air or CO2 were averaged and used for analysis of drug effects on ventilation.

Several values for one entry are separate records, joined by “and”; a condition that tells them apart may be missing. Identical values can stand only once.

In the case of `O=C1CCC2C3Cc4ccc(O)c5c4[C@@]2(CCN3CCc2ccc(Cl)cc2)[C@H]1O5` (stereo partly drawn) [Compound 2i, (7aR,12bS)-3-(4-Chlorophenethyl)-9-hydroxy-2,3,4,4a,5,6-hexahydro-1H-4,12-methanobenzofuro[3,2-e]-isoquinolin-7(7aH)-one], the “ED50 ratios (behavioral impairment/antinociception)” value with squirrel monkeys [1] (antinociception at 50 °C or 52 °C) is given as no more than 2. The “Potency Ratio Behavioral Disruption: Antinociception” value in the data set with squirrel monkeys [1] (ratio of ED50 values, 52 °C) stood at 1.5. In the data set on squirrel monkeys [2], the “Potency Ratio Respiratory Depression: Antinociception” value is listed as 3.9; the “Potency Ratio Respiratory Depression: Behavioral Disruption” value is 2 and 2.6.
